# Assay results as given in the supplement of paper PMC12889115.
# The list shows a part of the results. Values are raw readings; no control value is given beside them.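 In the initial screen, polymyxin B was used at a concentration that permeabilizes Salmonella's outer membrane but not its inner membrane. Maximum growth was set by DMSO wells with or without polymyxin B. Since plates varied, data were ranked per plate, and compounds giving the lowest OD600 advanced as hits.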
# Tested on: Salmonella enterica serovar Typhimurium SL1344
# Experiment: bacterial growth OD600 after 18 h with compound and polymyxin B; higher = more bacterial growth (less inhibition)
# Details: 50 µM, Mueller-Hinton broth
SMILES,bacterial growth OD600 (polymyxin B 0.75 µg/mL),bacterial growth OD600 (polymyxin B 1 µg/mL)
COc1ccccc1-c1ccnc(-n2ncc(C(=O)N3CCN(C(C)C)CC3)c2C2CC2)n1,0.812,
COCC(=O)Nc1cc(C(=O)N(C)Cc2ccc3nccnc3c2)cc2nc(-c3ccccc3)n(C)c12,0.829,
CC(O)CNc1ccc(-c2nc(-c3cccc(C(F)(F)F)c3)no2)cn1 (stereo not given),0.021,
c1ccc(CCCc2noc(-c3ccc(N4CCCO4)nc3)n2)cc1,0.001,
COc1cccc(CCC2CCCN(C(=O)CCN3CCCCC3=O)C2)c1 (stereo not given),0.838,
O=C(c1ccsc1)N1CCC2(CCCN(Cc3ccccc3F)C2=O)C1 (stereo not given),,0.959
Cn1c(C2CCC2)nc2cc(C(=O)N3CCN(c4ccccn4)CC3)cc(NC(=O)C3CCCO3)c21 (stereo not given),0.9,
CC(=O)Nc1ccc(CN2CCCC(N3CCN(c4ccccc4)CC3)C2)cc1 (stereo not given),,1.08
CCOC(=O)C1(Cc2ccccc2F)CCCN(C(=O)CCOC)C1 (stereo not given),,0.866
COc1ccc(NC(=O)CCC2CCCN(CCCn3cccn3)C2)c(C)c1 (stereo not given),0.862,
CC1(C)CC(C(=O)N2CCOc3c(cc(-c4cccnc4)cc3OCCc3cccs3)C2)CCO1 (stereo not given),0.72,
O=C(Nc1cnn(-c2ccc(C(=O)N3C[C@@H]4C[C@H](C3)c3cccc(=O)n3C4)cc2)c1)c1ccoc1,0.855,
CCc1ocnc1C(=O)N1CCC(C2CCN(c3ncccn3)CC2)C1 (stereo not given),0.884,
COc1cccc(CNC(=O)CCC2CCCN(c3cc(C)nc(N)n3)C2)c1 (stereo not given),0.766,
COc1ccc(-n2cc(CNCC3CC(=O)N(C4CC4)C3)c(-c3ccccc3Cl)n2)cc1 (stereo not given),,0.917
c1ccc(COC2CCCN(c3nc4nonc4nc3N3CCCC3)C2)nc1 (stereo not given),0.778,
CCN(CC1CCCN(CCc2cccc(F)c2)C1)C(=O)c1ccnc(Cl)c1 (stereo not given),,0.987
COCCc1nc2ccc(C(=O)N3CCN(c4nc(C)cnc4C)CC3)cc2o1,,1
Cc1cc(C(=O)N(C)CC2CCCN(CCc3ccccc3F)C2)nn1C (stereo not given),,0.945
COc1cccc(C(=O)N2CCC(C3(Cc4ccc(F)cc4)NC(=O)N(C4CCOC4)C3=O)CC2)c1 (stereo not given),0.866,

# Record cards (already shown).
# O=C(c1ccsc1)N1CCC2(CCCN(Cc3ccccc3F)C2=O)C1 (stereo not given) is listed with bacterial growth OD600 (polymyxin B 1 µg/mL): 0.959
# CCOC(=O)C1(Cc2ccccc2F)CCCN(C(=O)CCOC)C1 (stereo not given) is listed with bacterial growth OD600 (polymyxin B 1 µg/mL): 0.866
